Measured values: PMC4595342
These are yes or no findings as the source states them, for the method shown. In cells and extracts the contact can be indirect. Sequences can lack the tags named with a protein.

By UniProt entry, the sequences of proteins in these tests, tags left out.
UniProt Q9JJ66: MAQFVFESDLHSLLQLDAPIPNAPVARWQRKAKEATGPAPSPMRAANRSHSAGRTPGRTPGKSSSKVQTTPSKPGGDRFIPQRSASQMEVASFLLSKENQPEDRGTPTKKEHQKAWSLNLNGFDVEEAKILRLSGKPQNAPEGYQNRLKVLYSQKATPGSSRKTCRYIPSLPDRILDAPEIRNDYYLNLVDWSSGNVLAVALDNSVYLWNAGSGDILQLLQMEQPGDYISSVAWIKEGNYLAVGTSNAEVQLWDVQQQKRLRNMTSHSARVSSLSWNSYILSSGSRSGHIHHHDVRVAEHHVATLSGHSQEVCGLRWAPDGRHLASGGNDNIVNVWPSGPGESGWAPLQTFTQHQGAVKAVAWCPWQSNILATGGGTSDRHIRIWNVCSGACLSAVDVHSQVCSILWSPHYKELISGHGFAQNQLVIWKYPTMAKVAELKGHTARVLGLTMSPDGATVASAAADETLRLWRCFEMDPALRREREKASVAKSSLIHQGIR
UniProt Q9R1K5: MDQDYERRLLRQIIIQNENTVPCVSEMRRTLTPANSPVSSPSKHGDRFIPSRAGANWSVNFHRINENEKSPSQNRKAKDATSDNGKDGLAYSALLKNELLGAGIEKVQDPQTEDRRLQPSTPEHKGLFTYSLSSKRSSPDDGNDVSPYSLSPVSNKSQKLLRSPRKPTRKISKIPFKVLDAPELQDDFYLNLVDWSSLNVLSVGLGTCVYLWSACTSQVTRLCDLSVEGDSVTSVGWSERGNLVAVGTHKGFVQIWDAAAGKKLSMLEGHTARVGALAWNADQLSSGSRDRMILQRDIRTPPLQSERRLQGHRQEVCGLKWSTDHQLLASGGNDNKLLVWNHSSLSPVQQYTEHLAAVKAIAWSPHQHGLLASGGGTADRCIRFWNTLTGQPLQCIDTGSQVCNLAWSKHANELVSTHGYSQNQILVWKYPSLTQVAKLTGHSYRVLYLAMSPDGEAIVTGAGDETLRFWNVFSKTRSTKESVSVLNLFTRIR

B1: p21 (protein, UniProt P39689 1-159)
chain: MSNPGDVRPVPHRSKVCRCLFGPVDSEQLRRDCDALMAGCLQEARERWNFDFVTETPLEGNFVWERVRSLGLPKVYLSPGSRSRDDLGGDKRPSTSSALLQGPAPEDHVALSLSCTLVSERPEDSPGGPGTSQGRKRRQTSLTDFYHSKRRLVFCKRKP

Each molecule was assayed against T1, KIF7-GFP (mouse) (UniProt B7ZNG0) (assay: co-IP; KIF7-GFP precipitated with GFP-trap agarose beads (Chromotek GFP trap kit) from asynchronous KIF7-GFP expressing MLE15 cells; immunoblots of the precipitate; agarose beads as negative control).
T1 sequence: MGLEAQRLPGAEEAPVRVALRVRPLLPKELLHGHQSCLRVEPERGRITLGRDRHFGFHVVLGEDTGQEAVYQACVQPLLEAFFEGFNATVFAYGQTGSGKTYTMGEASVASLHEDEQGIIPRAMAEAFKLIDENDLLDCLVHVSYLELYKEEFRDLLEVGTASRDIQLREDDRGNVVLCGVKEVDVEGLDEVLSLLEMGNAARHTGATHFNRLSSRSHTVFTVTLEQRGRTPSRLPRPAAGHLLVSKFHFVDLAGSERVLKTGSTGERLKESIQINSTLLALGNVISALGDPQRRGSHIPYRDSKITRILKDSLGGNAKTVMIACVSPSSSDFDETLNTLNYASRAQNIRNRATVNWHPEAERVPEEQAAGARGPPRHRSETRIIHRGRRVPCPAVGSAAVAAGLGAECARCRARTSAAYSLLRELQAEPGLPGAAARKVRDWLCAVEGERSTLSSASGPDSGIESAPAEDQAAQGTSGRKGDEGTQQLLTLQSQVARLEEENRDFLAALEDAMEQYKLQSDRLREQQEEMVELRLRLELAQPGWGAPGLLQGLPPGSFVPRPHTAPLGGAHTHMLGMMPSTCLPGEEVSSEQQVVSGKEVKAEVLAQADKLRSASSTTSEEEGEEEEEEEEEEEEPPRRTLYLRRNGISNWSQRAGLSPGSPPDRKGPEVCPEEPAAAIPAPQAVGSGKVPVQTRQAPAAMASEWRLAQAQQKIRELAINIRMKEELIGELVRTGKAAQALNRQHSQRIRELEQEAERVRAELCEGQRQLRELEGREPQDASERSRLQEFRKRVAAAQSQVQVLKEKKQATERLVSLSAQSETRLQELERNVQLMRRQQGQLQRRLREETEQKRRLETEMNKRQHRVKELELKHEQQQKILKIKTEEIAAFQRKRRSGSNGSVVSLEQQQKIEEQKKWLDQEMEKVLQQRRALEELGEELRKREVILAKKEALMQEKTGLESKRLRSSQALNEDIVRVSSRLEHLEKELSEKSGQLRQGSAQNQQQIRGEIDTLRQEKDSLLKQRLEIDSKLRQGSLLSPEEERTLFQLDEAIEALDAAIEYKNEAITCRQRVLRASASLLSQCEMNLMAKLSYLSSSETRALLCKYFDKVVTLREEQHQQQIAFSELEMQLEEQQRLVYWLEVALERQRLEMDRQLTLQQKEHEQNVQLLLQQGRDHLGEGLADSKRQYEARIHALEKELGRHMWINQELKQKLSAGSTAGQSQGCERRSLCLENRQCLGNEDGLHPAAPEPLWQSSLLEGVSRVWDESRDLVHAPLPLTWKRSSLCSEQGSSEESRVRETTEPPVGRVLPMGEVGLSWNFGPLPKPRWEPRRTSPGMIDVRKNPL

binding, no binding:
CDC20 (p55) (from UniProt Q9JJ66 1-499), FZR1 (CDH1) (from UniProt Q9R1K5 1-493), pCDK2 (from UniProt P97377 1-346), B1
